# Source: article PMC7862700
# Amino acid sequences for entries named in this document (tags omitted). A change or cut given only in a name is not applied to a line headed by its entry.
# UniProt P32519: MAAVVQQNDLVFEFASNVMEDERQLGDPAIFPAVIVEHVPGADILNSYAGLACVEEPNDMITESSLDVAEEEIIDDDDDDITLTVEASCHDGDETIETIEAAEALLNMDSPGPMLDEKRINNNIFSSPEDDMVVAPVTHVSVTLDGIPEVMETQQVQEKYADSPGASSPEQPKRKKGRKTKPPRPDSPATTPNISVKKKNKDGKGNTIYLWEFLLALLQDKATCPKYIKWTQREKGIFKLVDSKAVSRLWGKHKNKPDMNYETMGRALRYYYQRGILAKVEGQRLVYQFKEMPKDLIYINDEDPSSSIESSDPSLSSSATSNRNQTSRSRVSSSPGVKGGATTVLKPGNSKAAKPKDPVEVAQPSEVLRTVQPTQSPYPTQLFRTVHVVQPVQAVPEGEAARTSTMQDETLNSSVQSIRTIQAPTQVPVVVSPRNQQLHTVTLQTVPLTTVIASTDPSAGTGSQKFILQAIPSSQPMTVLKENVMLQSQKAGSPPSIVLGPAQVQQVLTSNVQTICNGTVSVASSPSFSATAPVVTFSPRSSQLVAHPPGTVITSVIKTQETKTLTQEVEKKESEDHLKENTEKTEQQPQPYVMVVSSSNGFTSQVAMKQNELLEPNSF
# UniProt P50549: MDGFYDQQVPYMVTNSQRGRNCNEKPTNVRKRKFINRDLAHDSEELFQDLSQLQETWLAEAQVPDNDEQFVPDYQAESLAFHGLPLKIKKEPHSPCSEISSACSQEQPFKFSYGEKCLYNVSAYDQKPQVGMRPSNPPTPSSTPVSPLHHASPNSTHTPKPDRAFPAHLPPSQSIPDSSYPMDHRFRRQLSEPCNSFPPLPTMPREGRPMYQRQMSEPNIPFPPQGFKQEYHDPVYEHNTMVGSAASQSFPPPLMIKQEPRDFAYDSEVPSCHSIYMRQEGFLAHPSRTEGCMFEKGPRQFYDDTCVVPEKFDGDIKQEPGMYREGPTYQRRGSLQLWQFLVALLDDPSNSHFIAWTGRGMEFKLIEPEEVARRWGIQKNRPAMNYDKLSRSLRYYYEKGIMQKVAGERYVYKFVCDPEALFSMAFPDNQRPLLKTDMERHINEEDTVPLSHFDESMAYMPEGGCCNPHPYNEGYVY
# The list shows a part of the results, in another mix than the full data. For some of these results: At the low end of the ranking, values are background and their order means little. The list shows a part of the results. For some of these results: The exact form of the protein is not confirmed.
# Tests used:
# Test in all cases: DAPPL (digital affinity profiling via proximity ligation, sequencing)
# Details in all cases: 10 mM Tris-HCl pH 7.5, 50 mM NaCl, 1 mM DTT, 4% glycerol, room temperature, 30 min; GST-TFs on glutathione beads, 16-mer random dsDNA library, 0.1% …; high values mean tight binding; double strand, one strand shown; scale: fold enrichment (6-mer frequency, TF over GST control)
# ERG = target: T1, ERG (UniProt P11308)
# T1 sequence: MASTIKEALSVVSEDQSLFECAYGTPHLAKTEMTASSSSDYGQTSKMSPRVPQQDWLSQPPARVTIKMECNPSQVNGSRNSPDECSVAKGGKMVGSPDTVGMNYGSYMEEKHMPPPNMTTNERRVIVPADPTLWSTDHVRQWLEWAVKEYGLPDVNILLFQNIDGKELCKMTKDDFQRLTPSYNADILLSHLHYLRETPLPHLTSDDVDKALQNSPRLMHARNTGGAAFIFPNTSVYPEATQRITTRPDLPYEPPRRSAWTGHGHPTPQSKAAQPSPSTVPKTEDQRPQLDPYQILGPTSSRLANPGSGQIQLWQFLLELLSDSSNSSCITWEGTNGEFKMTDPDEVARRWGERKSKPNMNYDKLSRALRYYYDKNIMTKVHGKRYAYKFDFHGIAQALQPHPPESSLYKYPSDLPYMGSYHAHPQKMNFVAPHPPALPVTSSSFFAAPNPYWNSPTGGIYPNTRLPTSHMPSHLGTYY
# ELF1 = ELF1 (UniProt P32519)
# ETV4 = target: T2, ETV4 (UniProt P43268)
# T2 sequence: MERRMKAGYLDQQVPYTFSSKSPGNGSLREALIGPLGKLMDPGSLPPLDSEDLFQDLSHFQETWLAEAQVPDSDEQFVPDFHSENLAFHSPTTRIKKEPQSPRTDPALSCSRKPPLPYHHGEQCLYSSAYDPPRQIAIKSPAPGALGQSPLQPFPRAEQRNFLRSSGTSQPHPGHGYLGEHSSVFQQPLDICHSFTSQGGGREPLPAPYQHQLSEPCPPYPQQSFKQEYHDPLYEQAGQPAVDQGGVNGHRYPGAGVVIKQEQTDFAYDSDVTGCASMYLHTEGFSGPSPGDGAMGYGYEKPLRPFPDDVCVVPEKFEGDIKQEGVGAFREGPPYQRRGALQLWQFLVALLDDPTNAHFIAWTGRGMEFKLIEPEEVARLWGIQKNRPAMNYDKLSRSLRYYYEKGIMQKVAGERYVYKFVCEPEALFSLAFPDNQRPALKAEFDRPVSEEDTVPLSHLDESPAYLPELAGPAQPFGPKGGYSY
# ETV1 = ETV1 (UniProt P50549)
sequence,measurement,setting,value
AGGAAG,binding signal,ERG,1.63
same,binding signal,ELF1,1.23
same,binding signal,ETV4,1.24
TGGCAT,binding signal,ETV4,1.13
same,binding signal,ETV1,1.18
ATTTTC,binding signal,ETV4,1.37
same,binding signal,ETV1,1.4
CTAGCC,binding signal,ETV4,1.01
same,binding signal,ETV1,0.961
TTTTTT,binding signal,ETV4,1.11
same,binding signal,ETV1,1.36
GGACAT,binding signal,ETV4,1.23
same,binding signal,ETV1,1.23
TTCGTC,binding signal,ETV4,1.26
same,binding signal,ETV1,1.26
TGACCG,binding signal,ETV4,1.46
same,binding signal,ETV1,1.56
TGGCAC,binding signal,ETV4,1.2
same,binding signal,ETV1,1.11
TTGGGG,binding signal,ETV4,1.25
same,binding signal,ETV1,1.38
TTTGAC,binding signal,ETV4,1.43
same,binding signal,ETV1,1.42
GACTTT,binding signal,ETV4,1.17
same,binding signal,ETV1,1.24
AATTTT,binding signal,ETV4,1.27
same,binding signal,ETV1,1.23
CATGGT,binding signal,ETV4,1.21
same,binding signal,ETV1,1.29
GTTACA,binding signal,ETV4,1.15
same,binding signal,ETV1,1.11
CTACGC,binding signal,ETV4,1.55
same,binding signal,ETV1,1.55
GTTCGA,binding signal,ETV4,1.12
same,binding signal,ETV1,1.08
TGTCCG,binding signal,ETV4,1.46
same,binding signal,ETV1,1.6
TTGTTC,binding signal,ERG,1.34
same,binding signal,ELF1,1.44
same,binding signal,ETV4,1.46
AATCCA,binding signal,ETV4,1.06
same,binding signal,ETV1,1.12
GCTAGG,binding signal,ERG,0.985
same,binding signal,ELF1,0.926
same,binding signal,ETV4,0.988
CTCGCT,binding signal,ETV4,1.76
same,binding signal,ETV1,1.71
AAAGTT,binding signal,ETV4,1.1
same,binding signal,ETV1,1.07
TTCGCA,binding signal,ETV4,1.36
same,binding signal,ETV1,1.32
AGTCTC,binding signal,ETV4,1.01
same,binding signal,ETV1,0.935
AGTTTC,binding signal,ETV4,1.18
same,binding signal,ETV1,1.29
CGCTGG,binding signal,ETV4,1.08
same,binding signal,ETV1,0.94
ACTAAT,binding signal,ETV4,1.31
same,binding signal,ETV1,1.3
TCCGGG,binding signal,ETV4,1.41
same,binding signal,ETV1,1.59
CCAAAT,binding signal,ETV4,1.09
same,binding signal,ETV1,0.992
AAAGCA,binding signal,ETV4,1.05
same,binding signal,ETV1,1.06
CAACTT,binding signal,ETV4,1.61
same,binding signal,ETV1,1.54
TGATAT,binding signal,ETV4,1.06
same,binding signal,ETV1,0.999
AAATCT,binding signal,ETV4,1.22
same,binding signal,ETV1,1.35
ACTCAA,binding signal,ETV4,1.15
same,binding signal,ETV1,1.15
TCCCAG,binding signal,ETV4,1.09
same,binding signal,ETV1,0.982
AGCATT,binding signal,ETV4,1.11
same,binding signal,ETV1,1.13
ACTCCG,binding signal,ERG,1.43
same,binding signal,ELF1,1.48
same,binding signal,ETV4,1.41
TCCACG,binding signal,ETV4,1.03
same,binding signal,ETV1,1.08
CTTAGT,binding signal,ETV4,1.23
same,binding signal,ETV1,1.17
GCTATG,binding signal,ETV4,1.26
same,binding signal,ETV1,1.17
CCATCT,binding signal,ETV4,1.27
same,binding signal,ETV1,1.34

# An excerpt of these results, with tabs:
sequence	measurement	setting	value
AGGAAG	binding signal	ETV4	1.24
TGGCAT	binding signal	ETV1	1.18
TGACCG	binding signal	ETV4	1.46
CATGGT	binding signal	ETV1	1.29
TGTCCG	binding signal	ETV4	1.46
ACTAAT	binding signal	ETV1	1.3
CAACTT	binding signal	ETV4	1.61
